Assay results from US20040138412 (published 2004).

Experiment: general procedure: Boc solid-phase peptide synthesis; PAM resin or thioester-generating resin; HBTU (in situ neutralization)
Settings: coupling step
For “Phe-Gly-Gly thioester + Nα-1-(4-methoxyphenyl)-2-mercaptoethane glycine-SYRFL”, the step yield was greater than 98%. “Mouse Larc 1-31 (Ala) thioester + auxiliary II GSYRFL” gave a step yield of 85%. “TBP-A 1-67 (His) thioester + auxiliary II GSYRFL” gave a step yield of 87%. “MCP1 1-35 (Lys) thioester + auxiliary I GSYRFL” gave a step yield of 76%. “Phe-Gly-Gly thioester + Nα-1-(2,4-methoxyphenyl)-2-mercaptoethane glycine-SYRFL” showed a step yield greater than 98%. For “Mouse Larc 1-31 (Ala) thioester + auxiliary I GSYRFL”, the step yield was 92%.
